Assay results published in the supplement of paper PMC8728848.
The list shows a part of the results.

Assays:
Assay in all cases: glycan array binding signal (z-score within array); higher = stronger binding
Details in all cases: glycan notation: IUPAC condensed, linker removed
[1] = biological target: Fuc(a1-2)[Gal(a1-3)]Gal(b1-4)GlcNAc(b1-2)Man(a1-3)[Fuc(a1-2)[Gal(a1-3)]Gal(b1-4)GlcNAc(b1-2)Man(a1-6)]Man(b1-4)GlcNAc(b1-4)[Fuc(a1-6)]GlcNAc
Procedure, shortened: (§1)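 From the Consortium for Functional Glycomics database, 3228 arrays were curated, keeping only those whose protein sequence was available. Binding is given as a within-array Z-score averaged across arrays sharing a protein sequence and across linkers. Negative Z-scores can be read as non-binding.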

[2] = biological target: Fuc(a1-2)[Gal(a1-3)]Gal(b1-4)GlcNAc(b1-3)GalNAc
Procedure, shortened: as §1

[3] = biological target: Fuc(a1-2)[Gal(a1-3)]Gal(b1-4)GlcNAc(b1-3)[Fuc(a1-2)[Gal(a1-3)]Gal(b1-4)GlcNAc(b1-6)]GalNAc
Procedure, shortened: as §1

[4] = biological target: Fuc(a1-2)[Gal(a1-3)]Gal(b1-4)GlcNAc(b1-6)GalNAc
Procedure, shortened: as §1

[5] = biological target: Fuc(a1-2)[Gal(a1-3)]Gal(b1-4)[Fuc(a1-3)]Glc
Procedure, shortened: as §1

[6] = biological target: Fuc(a1-2)[Gal(a1-3)]Gal(b1-4)[Fuc(a1-3)]GlcNAc
Procedure, shortened: as §1

[7] = biological target: Fuc(a1-2)[Gal(a1-3)]Gal(b1-4)[Fuc(a1-3)]GlcNAc(b1-3)GalNAc
Procedure, shortened: as §1

[8] = biological target: Fuc(a1-2)[Gal(a1-4)]Gal(b1-4)GlcNAc
Procedure, shortened: as §1

[9] = biological target: Fuc(a1-2)[GalNAc(a1-3)]Gal
Procedure, shortened: as §1

[10] = biological target: Fuc(a1-2)[GalNAc(a1-3)]Gal(b1-3)GalNAc(a1-3)[Fuc(a1-2)]Gal(b1-4)GlcNAc
Procedure, shortened: as §1

[11] = biological target: Fuc(a1-2)[GalNAc(a1-3)]Gal(b1-3)GalNAc(b1-3)Gal(a1-4)Gal(b1-4)Glc
Procedure, shortened: as §1

[12] = biological target: Fuc(a1-2)[GalNAc(a1-3)]Gal(b1-3)GlcNAc
Procedure, shortened: as §1

[13] = biological target: Fuc(a1-2)[GalNAc(a1-3)]Gal(b1-3)GlcNAc(b1-2)Man(a1-3)[Fuc(a1-2)[GalNAc(a1-3)]Gal(b1-3)GlcNAc(b1-2)Man(a1-6)]Man(b1-4)GlcNAc(b1-4)GlcNAc
Procedure, shortened: as §1

[14] = biological target: Fuc(a1-2)[GalNAc(a1-3)]Gal(b1-3)GlcNAc(b1-2)Man(a1-3)[Fuc(a1-2)[GalNAc(a1-3)]Gal(b1-3)GlcNAc(b1-2)Man(a1-6)]Man(b1-4)GlcNAc(b1-4)[Fuc(a1-6)]GlcNAc
Procedure, shortened: as §1

[15] = biological target: Fuc(a1-2)[GalNAc(a1-3)]Gal(b1-3)GlcNAc(b1-3)GalNAc
Procedure, shortened: as §1

[16] = biological target: Fuc(a1-2)[GalNAc(a1-3)]Gal(b1-3)GlcNAc(b1-6)GalNAc
Procedure, shortened: as §1

[17] = biological target: Fuc(a1-2)[GalNAc(a1-3)]Gal(b1-4)Glc
Procedure, shortened: as §1

[18] = biological target: Fuc(a1-2)[GalNAc(a1-3)]Gal(b1-4)GlcNAc
Procedure, shortened: as §1

[19] = biological target: Fuc(a1-2)[GalNAc(a1-3)]Gal(b1-4)GlcNAc(b1-2)Man
Procedure, shortened: as §1

[20] = biological target: Fuc(a1-2)[GalNAc(a1-3)]Gal(b1-4)GlcNAc(b1-2)Man(a1-3)[Fuc(a1-2)[GalNAc(a1-3)]Gal(b1-4)GlcNAc(b1-2)Man(a1-6)]Man(b1-4)GlcNAc(b1-4)GlcNAc
Procedure, shortened: as §1

[21] = biological target: Fuc(a1-2)[GalNAc(a1-3)]Gal(b1-4)GlcNAc(b1-2)Man(a1-3)[Fuc(a1-2)[GalNAc(a1-3)]Gal(b1-4)GlcNAc(b1-2)Man(a1-6)]Man(b1-4)GlcNAc(b1-4)[Fuc(a1-6)]GlcNAc
Procedure, shortened: as §1

[22] = biological target: Fuc(a1-2)[GalNAc(a1-3)]Gal(b1-4)GlcNAc(b1-3)Gal(b1-4)GlcNAc
Procedure, shortened: as §1

[23] = biological target: Fuc(a1-2)[GalNAc(a1-3)]Gal(b1-4)GlcNAc(b1-3)Gal(b1-4)GlcNAc(b1-3)Gal(b1-4)GlcNAc
Procedure, shortened: as §1

[24] = biological target: Fuc(a1-2)[GalNAc(a1-3)]Gal(b1-4)GlcNAc(b1-3)GalNAc
Procedure, shortened: as §1

[25] = biological target: Fuc(a1-2)[GalNAc(a1-3)]Gal(b1-4)GlcNAc(b1-3)[Fuc(a1-2)[GalNAc(a1-3)]Gal(b1-4)GlcNAc(b1-6)]GalNAc
Procedure, shortened: as §1

[26] = biological target: Fuc(a1-2)[GalNAc(a1-3)]Gal(b1-4)GlcNAc(b1-6)GalNAc
Procedure, shortened: as §1

[27] = biological target: Fuc(a1-2)[GalNAc(a1-3)]Gal(b1-4)[Fuc(a1-3)]GlcNAc
Procedure, shortened: as §1

[28] = biological target: Fuc(a1-2)[GalNAc(a1-3)]Gal(b1-4)[Fuc(a1-3)]GlcNAc(b1-3)GalNAc
Procedure, shortened: as §1

[29] = biological target: Fuc(a1-2)[GalNAc(a1-4)]Gal(b1-4)GlcNAc
Procedure, shortened: as §1

[30] = biological target: Fuc(a1-2)[GalNAc(b1-3)]Gal
Procedure, shortened: as §1

[31] = biological target: Fuc(a1-3)GlcNAc
Procedure, shortened: as §1

[32] = biological target: Fuc(a1-3)[Gal(b1-4)]Glc6S
Procedure, shortened: as §1

[33] = biological target: Fuc(a1-3)[Gal(b1-4)]GlcNAc
Procedure, shortened: as §1

[34] = biological target: Fuc(a1-3)[Gal(b1-4)]GlcNAc(b1-2)Man
Procedure, shortened: as §1

[35] = biological target: Fuc(a1-3)[Gal(b1-4)]GlcNAc(b1-2)Man(a1-3)[Fuc(a1-3)[Gal(b1-4)]GlcNAc(b1-2)Man(a1-6)]Man(b1-4)GlcNAc(b1-4)GlcNAc
Procedure, shortened: as §1

[36] = biological target: Fuc(a1-3)[Gal(b1-4)]GlcNAc(b1-2)Man(a1-3)[Fuc(a1-3)[Gal(b1-4)]GlcNAc(b1-2)Man(a1-6)]Man(b1-4)GlcNAc(b1-4)[Fuc(a1-6)]GlcNAc
Procedure, shortened: as §1

[37] = biological target: Fuc(a1-3)[Gal(b1-4)]GlcNAc(b1-3)Gal(b1-3)[Fuc(a1-4)]GlcNAc
Procedure, shortened: as §1

B1: PX14343G-pdi-535-24-535 (Parabacteroides distasonis) (protein)
chain: LDTVPKDQLAPSTTWQTEADAKGFIVGCYKDLLDGNTLLYLDCGSDIGYNNFPWEGFRPWGDGSLSSSNPGQILYDYKSIRKANTFLENVDKVTFSSDAVKANYVAQAKAIRAYKYFLMNWWYGGVPIISSYSSADEAKVERNTEQEVRDYIAKDLDEALAGIAEAPEARGYIAKGAVLAIKMREALYYGDWQKAKDAAKAIIDLKQYELDPDYTNLFKVSGVDSKEIILADQNIETLDGLGTIGQMYNNVDQGWSSIVPTQNLVDMYEMSDGLTKEESKTYDAKHPFANRDPRMAMTILYPGRDWRGDVLNTLDEKLQDGTVNKNFPTYTDNASKSALTWAKYLDPMDQYGDVWSSGACPIVFRYAEVLLTYAEAANELSGPSDEIYGYLNQIRQRVGMGEVDKAKYGTKDKLRELIRRERTVELAGEGLRRADIVRWQEDGKMLAEKVMNGDLLRVTGTINYGESEPTKRAEITGTAVIETRQFSSRNRYLPIPQTSMDKNPNLKQNPGY
[1]
  glycan array binding signal (z-score): -0.826
[2]
  glycan array binding signal (z-score): -0.357
[3]
  glycan array binding signal (z-score): -0.8
[4]
  glycan array binding signal (z-score): -0.274
[5]
  glycan array binding signal (z-score): 1
[6]
  glycan array binding signal (z-score): -0.566
[7]
  glycan array binding signal (z-score): 0.124
[8]
  glycan array binding signal (z-score): -0.248
[9]
  glycan array binding signal (z-score): -0.184
[10]
  glycan array binding signal (z-score): -0.789
[11]
  glycan array binding signal (z-score): -1.02
[12]
  glycan array binding signal (z-score): 0.125
[13]
  glycan array binding signal (z-score): 0.307
[14]
  glycan array binding signal (z-score): -1.2
[15]
  glycan array binding signal (z-score): -0.017
[16]
  glycan array binding signal (z-score): -0.366
[17]
  glycan array binding signal (z-score): -0.666
[18]
  glycan array binding signal (z-score): -0.63
[19]
  glycan array binding signal (z-score): -0.554
[20]
  glycan array binding signal (z-score): 0.403
[21]
  glycan array binding signal (z-score): -0.351
[22]
  glycan array binding signal (z-score): -0.639
[23]
  glycan array binding signal (z-score): 0.671
[24]
  glycan array binding signal (z-score): 0.305
[25]
  glycan array binding signal (z-score): -0.346
[26]
  glycan array binding signal (z-score): -0.41
[27]
  glycan array binding signal (z-score): -0.896
[28]
  glycan array binding signal (z-score): 1.07
[29]
  glycan array binding signal (z-score): -0.362
[30]
  glycan array binding signal (z-score): -0.494
[31]
  glycan array binding signal (z-score): -0.083
[32]
  glycan array binding signal (z-score): 1.53
[33]
  glycan array binding signal (z-score): -0.225
[34]
  glycan array binding signal (z-score): -0.044
[35]
  glycan array binding signal (z-score): 0.575
[36]
  glycan array binding signal (z-score): 0.354
[37]
  glycan array binding signal (z-score): -0.007
